Values from PubChem BioAssay AID1224830 (NIAID, 2016)
Purpose: 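Regulators of TLR4 signalling towards TNF-alpha in macrophage-like cells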 (primary screen). System: human THP-1 monocytic leukaemia cells, TNF dual-luciferase reporter clone, PMA-differentiated to macrophage-like cells. Reagent: siRNA pool against human genes, 50 nM. Duration: LPS for 4 h, given about 3 days after siRNA transfection. Conditions: bacterial LPS (TLR4 ligand), 10 ng/ml. Measured: 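TNF firefly reporter luminescence divided by renilla, normalised to the plate median, then turned into a robust z-score for each replicate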. Scale: TNF reporter robust z-score: higher = stronger TNF reporter response to LPS. Active means: 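Each well counts as active if its z-score is over 2.8 or under -1.5; controls are left without a call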.
This is one part, drawn at random, of about 18,000 deposited reagents. About 2,900 of them (16%) count as active. 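Calls are made per well; low scores hint the gene aids the LPS response, high scores that it dampens it.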 Repeated entries: four replicate wells of each siRNA pool.

Which result is listed for EIF4G2 (eukaryotic translation initiation factor 4 gamma 2)?
TNF reporter robust z-score: -1.69; Outcome: active

For EIF4G2 (eukaryotic translation initiation factor 4 gamma 2), how do the results read?
TNF reporter robust z-score: -0.42; Outcome: inactive

For EIF4G2 (eukaryotic translation initiation factor 4 gamma 2), what does the deposit list?
TNF reporter robust z-score: -1.41; Outcome: inactive

What did the screen give for EIF4G2 (eukaryotic translation initiation factor 4 gamma 2)?
TNF reporter robust z-score: -0.84; Outcome: inactive

How did the screen score TCL6 (T cell leukemia/lymphoma 6)?
TNF reporter robust z-score: -1.21; Outcome: inactive

With TCL6 (T cell leukemia/lymphoma 6), what was measured?
TNF reporter robust z-score: -0.24; Outcome: inactive

How did the screen score TCL6 (T cell leukemia/lymphoma 6)?
TNF reporter robust z-score: -0.72; Outcome: inactive

For TCL6 (T cell leukemia/lymphoma 6), how do the results read?
TNF reporter robust z-score: -1.1; Outcome: inactive

What did the screen give for RTCA (RNA 3'-terminal phosphate cyclase)?
TNF reporter robust z-score: -1.33; Outcome: inactive

Which result is listed for RTCA (RNA 3'-terminal phosphate cyclase)?
TNF reporter robust z-score: -0.78; Outcome: inactive

For RTCA (RNA 3'-terminal phosphate cyclase), what does the deposit list?
TNF reporter robust z-score: -0.59; Outcome: inactive

For RTCA (RNA 3'-terminal phosphate cyclase), what does the deposit list?
TNF reporter robust z-score: -0.38; Outcome: inactive

With UEVLD (UEV and lactate/malate dehyrogenase domains), what was measured?
TNF reporter robust z-score: -1.46; Outcome: inactive

How did the screen score UEVLD (UEV and lactate/malate dehyrogenase domains)?
TNF reporter robust z-score: -0.94; Outcome: inactive

For UEVLD (UEV and lactate/malate dehyrogenase domains), what does the deposit list?
TNF reporter robust z-score: -0.38; Outcome: inactive

What is on record for UEVLD (UEV and lactate/malate dehyrogenase domains)?
TNF reporter robust z-score: -0.2; Outcome: inactive

Which result is listed for TMX4 (thioredoxin related transmembrane protein 4)?
TNF reporter robust z-score: -0.49; Outcome: inactive

For TMX4 (thioredoxin related transmembrane protein 4), what does the deposit list?
TNF reporter robust z-score: 0.4; Outcome: inactive

What did the screen give for TMX4 (thioredoxin related transmembrane protein 4)?
TNF reporter robust z-score: 0.53; Outcome: inactive

What did the screen give for TMX4 (thioredoxin related transmembrane protein 4)?
TNF reporter robust z-score: 0.74; Outcome: inactive

How did the screen score LENG9 (leukocyte receptor cluster member 9)?
TNF reporter robust z-score: 2.64; Outcome: inactive

Which result is listed for LENG9 (leukocyte receptor cluster member 9)?
TNF reporter robust z-score: 3.5; Outcome: active

Which result is listed for LENG9 (leukocyte receptor cluster member 9)?
TNF reporter robust z-score: 4.07; Outcome: active

For LENG9 (leukocyte receptor cluster member 9), what does the deposit list?
TNF reporter robust z-score: 1.1; Outcome: inactive

Which result is listed for ZNF791 (zinc finger protein 791)?
TNF reporter robust z-score: -0.19; Outcome: inactive

With ZNF791 (zinc finger protein 791), what does the deposit list?
TNF reporter robust z-score: 0.05; Outcome: inactive

For ZNF791 (zinc finger protein 791), what was measured?
TNF reporter robust z-score: 1.31; Outcome: inactive

Which result is listed for ZNF791 (zinc finger protein 791)?
TNF reporter robust z-score: 0.43; Outcome: inactive

Which result is listed for UBE2L3 (ubiquitin conjugating enzyme E2 L3)?
TNF reporter robust z-score: -0.33; Outcome: inactive

Which result is listed for UBE2L3 (ubiquitin conjugating enzyme E2 L3)?
TNF reporter robust z-score: 0.83; Outcome: inactive

With UBE2L3 (ubiquitin conjugating enzyme E2 L3), what does the deposit list?
TNF reporter robust z-score: 1.49; Outcome: inactive

What did the screen give for UBE2L3 (ubiquitin conjugating enzyme E2 L3)?
TNF reporter robust z-score: -0.04; Outcome: inactive

What is on record for APOBEC2 (apolipoprotein B mRNA editing enzyme catalytic subunit 2)?
TNF reporter robust z-score: -0.9; Outcome: inactive

With APOBEC2 (apolipoprotein B mRNA editing enzyme catalytic subunit 2), what does the deposit list?
TNF reporter robust z-score: -0.42; Outcome: inactive

For APOBEC2 (apolipoprotein B mRNA editing enzyme catalytic subunit 2), what was measured?
TNF reporter robust z-score: -0.52; Outcome: inactive

What did the screen give for APOBEC2 (apolipoprotein B mRNA editing enzyme catalytic subunit 2)?
TNF reporter robust z-score: -0.09; Outcome: inactive

For HLCS (holocarboxylase synthetase), what was measured?
TNF reporter robust z-score: -0.98; Outcome: inactive

For HLCS (holocarboxylase synthetase), how do the results read?
TNF reporter robust z-score: -0.24; Outcome: inactive

With HLCS (holocarboxylase synthetase), how do the results read?
TNF reporter robust z-score: -0.61; Outcome: inactive

How did the screen score HLCS (holocarboxylase synthetase)?
TNF reporter robust z-score: -0.28; Outcome: inactive

For VCX2 (variable charge X-linked 2), how do the results read?
TNF reporter robust z-score: -0.98; Outcome: inactive

With VCX2 (variable charge X-linked 2), how do the results read?
TNF reporter robust z-score: -1.59; Outcome: active

What did the screen give for VCX2 (variable charge X-linked 2)?
TNF reporter robust z-score: -0.79; Outcome: inactive

For VCX2 (variable charge X-linked 2), what was measured?
TNF reporter robust z-score: -0.89; Outcome: inactive

How did the screen score ZNF519 (zinc finger protein 519)?
TNF reporter robust z-score: -0.86; Outcome: inactive

With ZNF519 (zinc finger protein 519), what was measured?
TNF reporter robust z-score: -0.46; Outcome: inactive

What is on record for ZNF519 (zinc finger protein 519)?
TNF reporter robust z-score: -0.97; Outcome: inactive

Which result is listed for ZNF519 (zinc finger protein 519)?
TNF reporter robust z-score: -0.04; Outcome: inactive
